Assay results from article PMC6465352, “Citrate synthase from Synechocystis is a distinct class of bacterial citrate synthase” (Scientific Reports, 2019).

Target: T1, SyCS (Synechocystis sp. PCC 6803, UniProt Q59977)
T1 construct: gene gltA; full-length gltA (synthesized) in pGEX5X-1, GST-tagged, tag not reported cut; expressed in E. coli DH5alpha, glutathione-Sepharose purified
T1 sequence (Q59977 1-397): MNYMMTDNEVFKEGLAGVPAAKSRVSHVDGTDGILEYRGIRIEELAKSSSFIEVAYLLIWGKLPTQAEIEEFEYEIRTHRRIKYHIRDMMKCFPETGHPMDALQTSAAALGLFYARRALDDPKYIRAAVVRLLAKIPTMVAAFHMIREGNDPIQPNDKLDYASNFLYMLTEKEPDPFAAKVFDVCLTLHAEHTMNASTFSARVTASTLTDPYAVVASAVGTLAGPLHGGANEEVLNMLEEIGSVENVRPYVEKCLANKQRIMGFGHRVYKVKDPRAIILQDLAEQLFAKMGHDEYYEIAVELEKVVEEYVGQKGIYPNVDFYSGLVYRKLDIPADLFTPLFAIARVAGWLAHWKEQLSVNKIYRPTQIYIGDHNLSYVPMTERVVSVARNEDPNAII
Experiment: DTNB assay at A412, residual activity
Format: biochemical
Conditions: read-out: % activity at 5 mM

## O=C(O)CC(O)(CC(=O)O)C(=O)O [citrate]
  activity at 5000 µM: 1%
